Measurements published in PubChem BioAssay AID595 (National Center for Advancing Translational Sciences (NCATS), 2007).
Several values for one entry are separate records, joined by “and”; a condition that tells them apart may be missing. Equal values may be shown once. The whole screen tested about 71,000 compounds, of which about 310 (0.44%) were called active. This list was built around the results that the source calls inconclusive (neither active nor inactive); the mix of calls is not that of the screen. Calls come from the whole dose curve; as a rule, active = well fitted curve in either direction with a large enough effect; inconclusive = small, poorly fitted or top-dose-only effect, or another doubt; inactive = flat fitted curve, though single readings scatter. A potency beside an inconclusive call is a rough fit, not a confirmed value.

Test system: Hsp90 C-terminal peptide / TPR2A (Hop) interaction, human
Assay: qHTS Assay for Disrupters of an Hsp90 Co-Chaperone Interaction
Conditions: AlphaScreen TPR2A-His6 binding biotin-Hsp90 C-terminal peptide; activity change, negative = inhibition: at 57 µM (top of the series) unless noted
% is set by controls: 0 for no effect and ±100 for the full control effect; potency is the fitted concentration of half-maximal effect.

SMILES	activity change, negative = inhibition	Potency
C=CCn1c(SCCCC)nc(O)cc1=O	inactive: -5.91% [at 2.3 µM]	
CC(C)CC1N=C2c3ccccc3N=C(SCc3cc(=O)n4ccccc4n3)N2C1=O (stereo not given)	inactive: 8.62%	
CC(C)[C@@H](CC(=O)N[C@@H]1CCNC[C@H]1C(=O)N[C@H](CC(=O)N[C@@H](CCC(=O)O)CC(=O)O)Cc1ccccc1)NC(=O)C[C@H](Cc1ccccc1)NC(=O)[C@@H]1CNCC[C@H]1N		inconclusive: 31.6 µM [inhibitor, single point]
COC(=O)c1cccc(NC(=O)c2cccc(OC)c2)c1	inactive: -1.67%	
COc1ccc(-c2cc(C(=O)OCC(=O)N(C)C)c3ccccc3n2)cc1	inactive: 22.9%	
O=C(c1cc(C(F)(F)F)cc(C(F)(F)F)c1)N1CCC2(CCCN(c3ncccn3)C2)CC1	inactive: 3.88%	
COc1ccc(OC)c(S(=O)(=O)Nc2c(F)cccc2F)c1	inconclusive: 46.1%	
O=C(COC(=O)CCC1CCCC1)Nc1ccc(Cl)cn1	inactive: -1.43%	
CN(C)C[C@@H](O)c1ccc(Cl)c2ccccc12	inconclusive: 90.7% [at 11 µM]	
CCOC(=O)c1nnc2cc(-c3ccc(Br)cc3)nn2c1C	inactive: -5.72%	
CCCn1nnc(NC(=O)COc2ccc(C3CCCCC3)cc2)n1	inconclusive: 57.5%	
Cc1cccc(CNc2cc(-c3ccc(C(=O)N(C)C)cc3)ncn2)c1	inactive: 2.67%	
Cc1cccc(-c2noc(Cc3ccc(Cl)cc3)n2)c1		inconclusive: 25.1 µM [activator, single point]
N#Cc1ccc2ccn(CC(=O)NC3CCCCCC3)c2c1	inactive: 0.07%	
c1ccc(-c2n[nH]c(-c3ccccn3)n2)nc1		active: 0.2 µM
CCOC(=O)c1ccc(Nc2c(CC)c(C)nc3ncnn23)cc1	inconclusive: 78.2%	
CC(=C1C(=O)c2ccccc2C1=O)N1CCN(Cc2ccccc2)CC1	inconclusive: 36.2%	
Cc1ccc(NC(=O)c2ccco2)c(NC(=O)c2cccs2)c1	inconclusive: 42.8%	
O=C1Nc2ccc(I)cc2/C1=C/c1cc(Br)c(O)c(Br)c1		inconclusive: 15.8 µM [inhibitor, partial curve] and inconclusive: 12.6 µM [inhibitor, partial curve]
CN(C)c1ncc2ncc(=O)n(CCc3ccccc3)c2n1		inconclusive: 25.1 µM [activator, partial curve]
c1ccc(Cn2c(-c3ccco3)nc3nc4ccccc4nc32)cc1	inactive: 8.45%	
COc1ccc(C(NC(N)=O)c2ccccc2)cc1 (stereo not given)	inconclusive: 41.7%	
Cc1ccccc1N(CC(=O)Nc1ccc(F)cc1)S(C)(=O)=O	inconclusive: 39.6%	

SMILES	activity change, negative = inhibition	Potency
CCn1c(=O)cc(OCC(=O)NCc2ccco2)c2ccccc21	inconclusive: 30.7%	
CCOC(=O)CCCCC(=O)c1[nH]c(=O)[nH]c1CN1CCOCC1		active: 2.51 µM
COC(=O)c1sccc1NC(=O)c1csc2c1CCCC2		inconclusive: 25.1 µM [activator, single point]
CCOc1ccc2nc(C)cc(C(=O)O)c2c1	inactive: 3.59%	
CN1CCN(c2nc3c(c(=O)n(C)c(=O)n3C)n2CC(N)=O)CC1	inactive: -3.06%	
CSc1nsc(SCC(=O)N2CCCc3ccccc32)n1	inconclusive: 73.3%	
COc1cc2c(cc1OC)[C@@H]1C(=O)c3ccc4c(c3O[C@@H]1CO2)C=CC(C)(C)O4		inconclusive: 31.6 µM [inhibitor, partial curve]
O=C(O)CC[C@]1(C(=O)O)CCC(=O)c2ccccc21	inactive: -3% [at 11 µM]	
O=C1c2cccnc2C(=O)N1Cc1cccs1		inconclusive: 25.1 µM [inhibitor, partial curve]
CCOc1nonc1C(=N)/C(C(C)=O)=C(\C)O	inactive: 0.415%	
CCN1CCN(c2cc(C)c3cc(NC(=O)c4cncc(Br)c4)ccc3n2)CC1	inactive: -9.61%	
Cc1ccc(C(=O)c2cc3c(cc2N)OCCO3)cc1		inconclusive: 20 µM [inhibitor, partial curve]
CN(C)c1nc(N)c(C(=O)N=C(N)N)nc1Cl	inactive: -2.72%	
Fc1cccc(-c2cc3nc4c(c(N5CCOCC5)n3n2)CCCC4)c1		inconclusive: 25.1 µM [activator, partial curve]
Cc1ccccc1-c1nc(CS(=O)(=O)CC(=O)Nc2cc(F)ccc2F)c(C)o1	inactive: 6.03%	
Cn1cc(-c2nc3cnc(N4CCNCC4)nc3n(Cc3ccc(F)cc3)c2=O)c2ccccc21		inconclusive: 39.8 µM [activator, single point]
CCOc1ccc(C(C)=O)cc1N1C(=O)C2C3C=CC(C3)C2C1=O (stereo not given)	inconclusive: 57%	
CC(C)(C)NCc1cccn1-c1sc2c(c1C#N)CCCC2	inconclusive: 34.5%	
CCN(CCCNC(=O)CC1Oc2ccc(C)cc2NC1=O)Cc1ccccc1 (stereo not given)	inconclusive: 39.5%	
CCOc1cc2[nH]c(=O)n(CCCC(=O)NCc3ccco3)c(=O)c2cc1OCC	inconclusive: 48.1%	
C=C1CC[C@@H]2[C@](C)(CC[C@@H](O)[C@]2(C)CO)[C@@H]1C/C=C1/C(=O)OC[C@H]1O	inconclusive: 59.5%	
CN(Cc1ccco1)c1ncncc1-c1cccc(NS(C)(=O)=O)c1	inactive: -2.79%	

Record cards, from the list above.
`CCOC(=O)CCCCC(=O)c1[nH]c(=O)[nH]c1CN1CCOCC1` as listed: Potency: active: 2.51 µM
`Cc1ccccc1-c1nc(CS(=O)(=O)CC(=O)Nc2cc(F)ccc2F)c(C)o1` as listed: activity change, negative = inhibition: inactive: 6.03%
`COc1ccc(OC)c(S(=O)(=O)Nc2c(F)cccc2F)c1` as listed: activity change, negative = inhibition: inconclusive: 46.1%
`CN1CCN(c2nc3c(c(=O)n(C)c(=O)n3C)n2CC(N)=O)CC1` as listed: activity change, negative = inhibition: inactive: -3.06%
